Test results reported in patent US20070142282A1.
Results are given in words; binding and its absence hold for the method and conditions named. For part of these data: In cells and extracts the contact can be indirect. Some binding calls cover weakened binding; strength is not graded here. For part of these data: Tags and fused reporters may be left off the sequences shown.

Amino acid sequences for entries named in this document (tags omitted). A change or cut given only in a name is not applied to a line headed by its entry. Residues count along the entry.
UniProt P15692: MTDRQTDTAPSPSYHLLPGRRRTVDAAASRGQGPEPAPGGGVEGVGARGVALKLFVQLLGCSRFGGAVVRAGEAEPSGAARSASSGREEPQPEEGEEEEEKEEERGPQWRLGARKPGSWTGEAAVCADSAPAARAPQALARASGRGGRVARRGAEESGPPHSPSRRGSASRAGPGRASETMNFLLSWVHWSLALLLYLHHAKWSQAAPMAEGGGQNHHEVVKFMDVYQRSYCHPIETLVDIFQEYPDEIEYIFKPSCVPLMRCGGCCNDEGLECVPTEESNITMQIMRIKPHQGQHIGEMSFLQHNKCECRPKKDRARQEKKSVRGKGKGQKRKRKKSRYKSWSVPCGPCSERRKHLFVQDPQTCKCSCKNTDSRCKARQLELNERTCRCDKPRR
UniProt P17948, residues 27-758: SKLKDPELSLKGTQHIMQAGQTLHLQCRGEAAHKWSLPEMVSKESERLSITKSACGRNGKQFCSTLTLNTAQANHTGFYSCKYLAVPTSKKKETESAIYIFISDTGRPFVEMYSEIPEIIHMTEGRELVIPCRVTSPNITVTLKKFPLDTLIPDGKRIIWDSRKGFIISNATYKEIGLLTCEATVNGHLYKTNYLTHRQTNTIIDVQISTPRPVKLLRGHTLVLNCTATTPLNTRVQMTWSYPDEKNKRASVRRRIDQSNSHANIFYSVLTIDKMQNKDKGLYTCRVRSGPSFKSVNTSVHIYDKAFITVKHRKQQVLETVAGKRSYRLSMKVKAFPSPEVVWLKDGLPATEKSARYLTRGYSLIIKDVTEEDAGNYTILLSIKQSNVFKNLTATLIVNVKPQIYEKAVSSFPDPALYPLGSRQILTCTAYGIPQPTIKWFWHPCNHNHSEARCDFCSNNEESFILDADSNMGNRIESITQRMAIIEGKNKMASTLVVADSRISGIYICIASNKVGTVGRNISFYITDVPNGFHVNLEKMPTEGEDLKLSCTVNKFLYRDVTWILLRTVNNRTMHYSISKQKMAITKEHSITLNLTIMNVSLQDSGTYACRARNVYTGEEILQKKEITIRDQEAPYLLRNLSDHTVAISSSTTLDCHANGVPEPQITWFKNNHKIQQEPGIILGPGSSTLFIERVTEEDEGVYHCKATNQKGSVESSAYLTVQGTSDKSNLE
UniProt P35968, residues 20-764: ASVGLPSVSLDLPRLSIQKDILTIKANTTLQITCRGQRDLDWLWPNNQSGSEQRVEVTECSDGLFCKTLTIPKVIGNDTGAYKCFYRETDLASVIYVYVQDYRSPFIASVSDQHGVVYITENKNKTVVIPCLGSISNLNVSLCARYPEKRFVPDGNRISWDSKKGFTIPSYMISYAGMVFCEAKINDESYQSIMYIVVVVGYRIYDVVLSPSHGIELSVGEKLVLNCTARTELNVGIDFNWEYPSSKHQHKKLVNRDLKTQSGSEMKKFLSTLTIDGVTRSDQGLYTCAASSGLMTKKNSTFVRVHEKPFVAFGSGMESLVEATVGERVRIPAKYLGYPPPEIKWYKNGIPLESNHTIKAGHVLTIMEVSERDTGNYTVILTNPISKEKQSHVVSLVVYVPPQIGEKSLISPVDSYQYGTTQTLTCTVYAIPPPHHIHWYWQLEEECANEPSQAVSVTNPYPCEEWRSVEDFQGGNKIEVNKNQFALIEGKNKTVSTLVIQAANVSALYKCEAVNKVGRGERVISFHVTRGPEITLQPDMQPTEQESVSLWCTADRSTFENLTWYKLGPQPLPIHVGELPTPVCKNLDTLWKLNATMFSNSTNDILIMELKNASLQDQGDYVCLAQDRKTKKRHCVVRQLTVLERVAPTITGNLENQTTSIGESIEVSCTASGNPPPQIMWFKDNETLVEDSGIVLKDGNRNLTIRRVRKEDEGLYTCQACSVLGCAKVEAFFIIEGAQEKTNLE

T1: neuropilin-1-Ig fusion protein (UniProt O14786)
T1 sequence (looked up): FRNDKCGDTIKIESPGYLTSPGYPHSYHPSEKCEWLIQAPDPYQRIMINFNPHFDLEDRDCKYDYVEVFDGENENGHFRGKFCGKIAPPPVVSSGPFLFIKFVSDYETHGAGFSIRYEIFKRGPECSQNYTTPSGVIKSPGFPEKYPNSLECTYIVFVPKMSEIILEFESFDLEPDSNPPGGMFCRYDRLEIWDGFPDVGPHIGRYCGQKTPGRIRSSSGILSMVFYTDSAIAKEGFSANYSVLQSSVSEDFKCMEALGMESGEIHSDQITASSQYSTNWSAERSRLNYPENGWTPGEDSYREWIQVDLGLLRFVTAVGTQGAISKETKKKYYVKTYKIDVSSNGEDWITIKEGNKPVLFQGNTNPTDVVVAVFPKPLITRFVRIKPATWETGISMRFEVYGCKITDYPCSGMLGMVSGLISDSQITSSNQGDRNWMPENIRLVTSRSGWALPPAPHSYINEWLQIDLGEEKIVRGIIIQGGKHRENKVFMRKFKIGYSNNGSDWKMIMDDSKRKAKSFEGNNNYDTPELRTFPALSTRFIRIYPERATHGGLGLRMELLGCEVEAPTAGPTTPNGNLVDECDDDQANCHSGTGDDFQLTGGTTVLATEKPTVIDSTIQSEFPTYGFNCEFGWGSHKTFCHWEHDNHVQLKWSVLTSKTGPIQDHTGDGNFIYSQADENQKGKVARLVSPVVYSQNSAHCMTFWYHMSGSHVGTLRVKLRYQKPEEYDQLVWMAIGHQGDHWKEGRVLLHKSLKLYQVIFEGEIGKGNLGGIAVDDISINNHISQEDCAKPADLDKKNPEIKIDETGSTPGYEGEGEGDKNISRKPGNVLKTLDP

T2: neuropilin-2-Ig fusion protein (UniProt O60462)
T2 sequence (looked up): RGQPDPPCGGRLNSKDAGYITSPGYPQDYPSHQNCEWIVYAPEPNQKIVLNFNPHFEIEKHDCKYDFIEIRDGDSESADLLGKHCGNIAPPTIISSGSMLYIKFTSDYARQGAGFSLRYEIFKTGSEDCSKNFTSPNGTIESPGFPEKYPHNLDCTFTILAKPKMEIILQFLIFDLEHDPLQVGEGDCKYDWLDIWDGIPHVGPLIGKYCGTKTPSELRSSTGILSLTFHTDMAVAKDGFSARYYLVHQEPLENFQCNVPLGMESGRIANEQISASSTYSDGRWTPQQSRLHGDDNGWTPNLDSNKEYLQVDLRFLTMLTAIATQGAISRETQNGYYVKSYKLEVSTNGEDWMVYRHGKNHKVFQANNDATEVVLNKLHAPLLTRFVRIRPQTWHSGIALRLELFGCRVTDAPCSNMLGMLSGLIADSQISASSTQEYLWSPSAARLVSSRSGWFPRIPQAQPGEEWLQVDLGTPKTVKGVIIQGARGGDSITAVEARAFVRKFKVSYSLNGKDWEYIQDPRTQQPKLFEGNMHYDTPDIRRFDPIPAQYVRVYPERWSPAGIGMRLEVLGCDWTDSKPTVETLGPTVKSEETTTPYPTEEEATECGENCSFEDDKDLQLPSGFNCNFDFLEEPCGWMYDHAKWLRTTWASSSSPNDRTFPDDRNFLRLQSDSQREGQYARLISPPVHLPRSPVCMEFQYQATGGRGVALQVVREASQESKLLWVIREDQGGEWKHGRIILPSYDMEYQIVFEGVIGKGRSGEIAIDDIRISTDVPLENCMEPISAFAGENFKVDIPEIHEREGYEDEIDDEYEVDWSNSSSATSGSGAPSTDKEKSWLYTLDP

B1: VEGF-CDD chimeric protein (ligand)
chain: DAAQDPFESGLDLSDAEPDAGEATAYASKDLEEQLRSVSSVDELMTVLYPEYWKMYKCQLRKGGWQHNREQANLNSRTEETIKFAATFYDIETLKVIDEEWQRTQCSPRETCVEVASELGKSTNTFFKPPCVNVFRCGGCCNEESLICMNTSTSYISKQLFEISVPLTSVPELVPVKVANHTGCKCLPTAPRHPYSIIRRSIQIPEEDRCSHSKKLCPIDMLWDSNKCKCVLQEENPLAGTEDHSHLQEPALCGPHMMFDEDRCECVCKTPCPKDLIQHPKNCSCFECKESLETCCQKHKLFHPDTCSCEDRCPFHTRPCASGKTACAKHCRFPKEKRAAQGPHSRKNP
B2: VEGF-CDC chimeric protein (ligand)
chain: DAAQDPFESGLDLSDAEPDAGEATAYASKDLEEQLRSVSSVDELMTVLYPEYWKMYKCQLRKGGWQHNREQANLNSRTEETIKFAATFYDIETLKVIDEEWQRTQCSPRETCVEVASELGKSTNTFFKPPCVNVFRCGGCCNEESLICMNTSTSYISKQLFEISVPLTSVPELVPVKVANHTGCKCLPTAPRHPYSIIRRSLPATLPQCQAANKTCPTNYMWNNHICRCLAQEDFMFSSDAGDDSTDGFHDICGPNKELDEETCQCVCRAGLRPASCGPHKELDRNSCQCVCKNKLFPSQCGANREFDENTCQCVCKRTCPRNQPLNPGKCACECTESPQKCLLKGKKFHHQTCSCYRRPCTNRQKACEPGFSYSEEVCRCVPSYWKRPQMS
B3: CUB271-VEGF chimeric protein (ligand)
chain: DAAQGSTPQSASIKALRNANLRRDESNHLTDLYRRDETIQVKGNGYVQSPRFPNSYPRNLLLTWRLHSQENTRIQLVFDNQFGLEEAENDICRYDFVEVEDISETSTIIRGRWCGHKEVPPRIKSRTNQIKITFKSDDYFVAKPGFKIYYSLLEDFQPAAASETNWESVTSSISGVSYNSPSVTDPTLIADALDKKIAEFDTVEDLLKYFNPESWQEDLENMYLDTPRYRGRSYHDRKSKVDLDRLNDDAKRYSDPGQNHHEVVKFMDVYQRSYCHPIETLVDIFQEYPDEIEYIFKPSCVPLMRCGGCCNDEGLECVPTEESNITMQIMRIKPHQGQHIGEMSFLQHNKCECRPKKDLVFEQKLISEEDLNSAVDHHHHHH
B4: CUB256-VEGF chimeric protein (ligand)
chain: DAAQGSTPQSASIKALRNANLRRDESNHLTDLYRRDETIQVKGNGYVQSPRFPNSYPRNLLLTWRLHSQENTRIQLVFDNQFGLEEAENDICRYDFVEVEDISETSTIIRGRWCGHKEVPPRIKSRTNQIKITFKSDDYFVAKPGFKIYYSLLEDFQPAAASETNWESVTSSISGVSYNSPSVTDPTLIADALDKKIAEFDTVEDLLKYFNPESWQEDLENMYLDTPRYRGRSYHDRKSNDPGQNHHEVVKFMDVYQRSYCHPIETLVDIFQEYPDEIEYIFKPSCVPLMRCGGCCNDEGLECVPTEESNITMQIMRIKPHQGQHIGEMSFLQHNKCECRPKKDLVFEQKLISEEDLNSAVDHHHHHH
B5: CUB254-VEGF chimeric protein (ligand)
chain: DAAQGSTPQSASIKALRNANLRRDESNHLTDLYRRDETIQVKGNGYVQSPRFPNSYPRNLLLTWRLHSQENTRIQLVFDNQFGLEEAENDICRYDFVEVEDISETSTIIRGRWCGHKEVPPRIKSRTNQIKITFKSDDYFVAKPGFKIYYSLLEDFQPAAASETNWESVTSSISGVSYNSPSVTDPTLIADALDKKIAEFDTVEDLLKYFNPESWQEDLENMYLDTPRYRGRSYHDRNDPGQNHHEVVKFMDVYQRSYCHPIETLVDIFQEYPDEIEYIFKPSCVPLMRCGGCCNDEGLECVPTEESNITMQIMRIKPHQGQHIGEMSFLQHNKCECRPKKDLVFEQKLISEEDLNSAVDHHHHHH
B6: VEGF-DDC chimeric protein (ligand)
chain: DAAQDPSSNEHGPVKRSSQSTLERSEQQIRAASSLEELLRITHSEDWKLWRCRLRLKSFTSMDSRSASHRSTRFAATFYDIETLKVIDEEWQRTQCSPRETCVEVASELGKSTNTFFKPPCVNVFRCGGCCNEESLICMNTSTSYISKQLFEISVPLTSVPELVPVKVANHTGCKCLPTAPRHPYSIIRRSLPATLPQCQAANKTCPTNYMWNNHICRCLAQEDFMFSSDAGDDSTDGFHDICGPNKELDEETCQCVCRAGLRPASCGPHKELDRNSCQCVCKNKLFPSQCGANREFDENTCQCVCKRTCPRNQPLNPGKCACECTESPQKCLLKGKKFHHQTCSCYRRPCTNRQKACEPGFSYSEEVCRCVPSYWKRPQMS
B7: VEGF-CAC chimeric polypeptide (ligand)
chain: DAAQDPFESGLDLSDAEPDAGEATAYASKDLEEQLRSVSSVDELMTVLYPEYWKMYKCQLRKGGWQHNREQANLNSRTEETIKFAAGQNHHEVVKFMDVYQRSYCHPIETLVDIFQEYPDEIEYIFKPSCVPLMRCGGCCNDEGLECVPTEESNITMQIMRIKPHQGQHIGEMSFLQHNKCECRPKKDVYRQVHSIIRRSLPATLPQCQAANKTCPTNYMWNNHICRCLAQEDFMFSSDAGDDSTDGFHDICGPNKELDEETCQCVCRAGLRPASCGPHKELDRNSCQCVCKNKLFPSQCGANREFDENTCQCVCKRTCPRNQPLNPGKCACECTESPQKCLLKGKKFHHQTCSCYRRPCTNRQKACEPGFSYSEEVCRCVPSYWKRPQMSHHHHHHK

Experiments:
[1] = target: T1, neuropilin-1-Ig fusion protein; test: pull-down of 35S-labelled 293T conditioned medium with NP-1-Ig conditioned medium, protein A-Sepharose, SDS-PAGE
[2] = target: processed VEGF109 cleaved from CUB-VEGF109 (Homo sapiens (Human)) (UniProt P15692); test: anti-myc immunoprecipitation of 35S-labelled 293T medium, 7% PAGE in non-reducing conditions
[3] = target: T2, neuropilin-2-Ig fusion protein; test: pull-down of 35S-labelled 293T conditioned medium with NP-2-Ig conditioned medium, protein A-Sepharose, SDS-PAGE
[4] = target: soluble VEGFR-1-Ig fusion protein (UniProt P17948); test: pull-down of 35S-labelled 293T conditioned medium with 200 ng VEGFR-1-Ig, protein A/G-Sepharose, SDS-PAGE, autoradiography
[5] = target: soluble VEGFR-2-Ig fusion protein (UniProt P35968); test: pull-down of 35S-labelled 293T conditioned medium with 200 ng VEGFR-2-Ig, protein A/G-Sepharose, SDS-PAGE, autoradiography
[6] = target: T2, neuropilin-2-Ig fusion protein; test: pull-down of 35S-labelled 293T conditioned medium with NP2-Ig, with or without 10 µg/ml heparin, SDS-PAGE, autoradiography
[7] = target: T1, neuropilin-1-Ig fusion protein; test: pull-down of 35S-labelled 293T conditioned medium with NP1-Ig, with or without 10 µg/ml heparin, SDS-PAGE, autoradiography
[8] = target: T2, neuropilin-2-Ig fusion protein; test: pull-down of 35S-labelled 293T conditioned medium with NP2-Ig, without heparin

Row | Binder | binding [1] | binding [2] | also measured
1 | B1 | binds |  | 
2 | B2 | binds |  | 
3 | B3 |  | binds | 
4 | B4 |  | binds | 
5 | B5 |  | binds | 
6 | B6 | binds |  | binding [3]: binds
7 | B7 |  |  | binding [4]: binds; binding [5]: binds; binding [6]: binds; binding [7]: binds; binding [8]: binds
